Test system: cag T4SS
Format: cell-based, H. pylori
Conditions: 4.5 h co-culture; variable slope four parameter fit

Row | Compound | HillSlope, attenuation of cag T4SS-dependent IL-8 secretion
1 | O=C(O)[C@@H]1CSc2c(C3CC3)c(Cc3cccc4ccccc34)cc(=O)n21 [Compound C10, (3R)-8-cyclopropyl-7-(naphthalen-1-ylmethyl)-5-oxo-3,5-dihydro-2H-thiazolo[3,2-a]pyridine-3-carboxylic acid] | −1.49
2 | O=C(O)[C@@H]1CSc2c(C3CC3)c3cn(-c4ccccc4)cc3c(=O)n21 [GKP42, (3R)-9-cyclopropyl-5-oxo-7-phenyl-2,3,5,7-tetrahydropyrrolo[3,4-d][1,3]thiazolo[3,2-a]pyridine-3-carboxylic acid] | −3.12
3 | COc1ccc(Cc2cc(=O)n3c(c2C2CC2)SC[C@H]3C(=O)O)c2ccccc12 [KSK85, (3R)-7-[(4-methoxynaphthalen-1-yl)methyl]-8-cyclopropyl-5-oxo-2,3-dihydro-5H-[1,3]thiazolo[3,2-a]pyridine-3-carboxylic acid] | −1.23
